Earlier results as cited in patent publication US10131558B1, “Compositions, methods, and/or systems for managing sulfide” (priority 2016, dated 2018).
Like-named read-outs stand apart in the source and are kept apart here. For at least one compound, name, drawing or mass did not settle the structure.

Conditions: cited from earlier work

S [H2S, Hydrogen sulfide]
concentration by volume in the air produced by approximately one mg/l in solution (approximately 20 C): approximately 260 ppm
concentration by volume in the air produced by approximately one mg/l in solution (approximately 30 C): approximately 330 ppm
